From article PMC4742970 (Nature Communications, 2016)
No constants are given. Whether binding was seen depends on the method and setting. Some entries that bind do so weakly or less than the wild type. Sequences can lack the tags named with a protein. Values belong to the binder of their own block, whether it stands above or below them.

Key:
[1] = target: T1, Msh2HA (Msh2 subunit with an HA epitope tag), expressed in S. cerevisiae (S. cerevisiae) (UniProt P25847); test: co-purification by chromatography; the two subunits overexpressed in S. cerevisiae and purified together by sequential ion exchange chromatography and ssDNA-affinity chromatography
T1 sequence: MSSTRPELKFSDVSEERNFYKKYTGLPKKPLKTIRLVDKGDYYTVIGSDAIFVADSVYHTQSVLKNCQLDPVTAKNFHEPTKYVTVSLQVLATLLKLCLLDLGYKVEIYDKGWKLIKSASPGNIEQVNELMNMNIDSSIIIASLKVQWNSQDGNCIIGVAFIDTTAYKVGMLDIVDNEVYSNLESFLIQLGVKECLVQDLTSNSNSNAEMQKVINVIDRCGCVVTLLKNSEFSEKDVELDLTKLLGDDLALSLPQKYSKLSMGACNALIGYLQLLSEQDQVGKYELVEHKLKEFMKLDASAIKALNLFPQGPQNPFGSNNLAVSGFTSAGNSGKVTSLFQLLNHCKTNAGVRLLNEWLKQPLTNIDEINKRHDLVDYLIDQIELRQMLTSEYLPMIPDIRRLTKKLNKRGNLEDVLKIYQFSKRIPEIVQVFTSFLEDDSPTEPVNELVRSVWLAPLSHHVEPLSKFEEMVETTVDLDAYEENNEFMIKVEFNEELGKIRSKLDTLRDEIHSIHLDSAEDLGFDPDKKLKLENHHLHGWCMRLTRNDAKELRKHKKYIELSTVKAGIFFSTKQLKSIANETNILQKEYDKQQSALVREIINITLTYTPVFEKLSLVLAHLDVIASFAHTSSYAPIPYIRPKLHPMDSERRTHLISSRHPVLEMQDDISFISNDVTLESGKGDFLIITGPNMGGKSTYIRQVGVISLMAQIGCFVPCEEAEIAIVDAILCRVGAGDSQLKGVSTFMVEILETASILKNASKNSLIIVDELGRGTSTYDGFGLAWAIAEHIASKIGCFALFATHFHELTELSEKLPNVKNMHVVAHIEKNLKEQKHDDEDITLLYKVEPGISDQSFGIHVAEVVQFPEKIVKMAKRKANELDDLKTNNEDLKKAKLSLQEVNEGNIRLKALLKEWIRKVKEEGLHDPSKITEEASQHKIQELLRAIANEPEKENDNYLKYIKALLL

[2] = target: T2, Msh2HA (Msh2 subunit with an HA epitope tag), expressed in E. coli (S. cerevisiae) (UniProt P25847); test: co-purification by chromatography; the two subunits expressed in E. coli and purified together over QFF, ssDNA cellulose and QFF columns
T2 sequence: T1 sequence

binding [1]: binds
B1: Msh6, expressed in S. cerevisiae (protein, UniProt Q03834 1-1242)
chain: MAPATPKTSKTAHFENGSTSSQKKMKQSSLLSFFSKQVPSGTPSKKVQKPTPATLENTATDKITKNPQGGKTGKLFVDVDEDNDLTIAEETVSTVRSDIMHSQEPQSDTMLNSNTTEPKSTTTDEDLSSSQSRRNHKRRVNYAESDDDDSDTTFTAKRKKGKVVDSESDEDEYLPDKNDGDEDDDIADDKEDIKGELAEDSGDDDDLISLAETTSKKKFSYNTSHSSSPFTRNISRDNSKKKSRPNQAPSRSYNPSHSQPSATSKSSKFNKQNEERYQWLVDERDAQRRPKSDPEYDPRTLYIPSSAWNKFTPFEKQYWEIKSKMWDCIVFFKKGKFFELYEKDALLANALFDLKIAGGGRANMQLAGIPEMSFEYWAAQFIQMGYKVAKVDQRESMLAKEMREGSKGIVKRELQCILTSGTLTDGDMLHSDLATFCLAIREEPGNFYNETQLDSSTIVQKLNTKIFGAAFIDTATGELQMLEFEDDSECTKLDTLMSQVRPMEVVMERNNLSTLANKIVKFNSAPNAIFNEVKAGEEFYDCDKTYAEIISSEYFSTEEDWPEVLKSYYDTGKKVGFSAFGGLLYYLKWLKLDKNLISMKNIKEYDFVKSQHSMVLDGITLQNLEIFSNSFDGSDKGTLFKLFNRAITPMGKRMMKKWLMHPLLRKNDIESRLDSVDSLLQDITLREQLEITFSKLPDLERMLARIHSRTIKVKDFEKVITAFETIIELQDSLKNNDLKGDVSKYISSFPEGLVEAVKSWTNAFERQKAINENIIVPQRGFDIEFDKSMDRIQELEDELMEILMTYRKQFKCSNIQYKDSGKEIYTIEIPISATKNVPSNWVQMAANKTYKRYYSDEVRALARSMAEAKEIHKTLEEDLKNRLCQKFDAHYNTIWMPTIQAISNIDCLLAITRTSEYLGAPSCRPTIVDEVDSKTNTQLNGFLKFKSLRHPCFNLGATTAKDFIPNDIELGKEQPRLGLLTGANAAGKSTILRMACIAVIMAQMGCYVPCESAVLTPIDRIMTRLGANDNIMQGKSTFFVELAETKKILDMATNRSLLVVDELGRGGSSSDGFAIAESVLHHVATHIQSLGFFATHYGTLASSFKHHPQVRPLKMSILVDEATRNVTFLYKMLEGQSEGSFGMHVASMCGISKEIIDNAQIAADNLEHTSRLVKERDLAANNLNGEVVSVPGGLQSDFVRIAYGDGLKNTKLGSGEGVLNYDWNIKRNVLKSLFSIIDDLQS

binding [2]: binds
B2: Msh6, expressed in E. coli (protein, UniProt Q03834 1-1242)
chain: B1 chain
